Source: PubChem BioAssay AID686938 (Drosophila RNAi Screening Center, 2013)

Screen: 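Knock-downs reducing store-operated calcium influx in Drosophila cells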 (primary screen)
Cells: Drosophila S2R+ cells
Knock-down reagent: long dsRNA against Drosophila genes, about 0.25 µg dsRNA per well, roughly 10,000 cells
Timing: 5 days of knock-down before the calcium assay
Challenge: thapsigargin (SERCA pump blocker) to empty calcium stores; entry signal taken 4 min after adding it
Measured: 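Duplicate raw fluo-4 intensities per well from a plate reader, at rest and four minutes after thapsigargin emptied calcium stores; entry-to-rest ratio filled for only some wells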
Scale: calcium entry signal: higher = stronger calcium signal after store depletion; entry to resting ratio: higher = more calcium entry relative to resting level; resting calcium signal: higher = higher resting calcium signal
Active means: 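Hit if the duplicate-averaged plate z-score for entry over resting signal is under −3; wells with weak total dye signal (Fmax z < −2) or more than 5 off-targets removed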
Calls: active = strongly reduced calcium entry; inactive = no strong reduction
The deposit covers about 23,000 reagents; below is a random part of those that have a named target and a result. Of all reagents, 75 (0.33%) were called active. 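Raw plate signals without normalisation; calls rest on plate z-scores that were not deposited; ratio present for only 364 wells.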 A plus sign joins genes that one reagent is predicted to hit. Not given: the dose of the treatment.

| target gene | amplicon | calcium entry signal, replicate 1 (fluorescence units) | calcium entry signal, replicate 2 (fluorescence units) | entry to resting ratio | resting calcium signal, replicate 1 (fluorescence units) | resting calcium signal, replicate 2 (fluorescence units) | call |
| --- | --- | --- | --- | --- | --- | --- | --- |
| CG11970 | DRSC14157 | 2.79e7 | 3.64e7 | – | 1.34e7 | 1.73e7 | inactive |
| Nrg | DRSC17573 | 3.06e7 | 3.22e7 | – | 1.54e7 | 1.62e7 | inactive |
| Nrg | DRSC18688 | 2.87e7 | 3.53e7 | – | 1.29e7 | 1.56e7 | inactive |
| Mkk4 | DRSC16739 | 3.77e7 | 3.73e7 | – | 1.89e7 | 1.75e7 | inactive |
| CG6567 + CG42394 | DRSC22241 | 3.31e7 | 5.29e7 | – | 1.61e7 | 2.75e7 | inactive |
| Rbp9 | DRSC00416 | 2.54e7 | 2.46e7 | – | 1.26e7 | 1.24e7 | inactive |
| Rbp9 | DRSC00779 | 4.14e7 | – | – | 1.76e7 | – | inactive |
| CG15093 | DRSC06522 | 3.96e7 | 3.93e7 | – | 1.76e7 | 1.93e7 | inactive |
| Vha36-2 | DRSC06294 | 2.53e7 | 4.19e7 | – | 1.40e7 | 1.89e7 | inactive |
| kek3 | DRSC03553 | 4.13e7 | 4.70e7 | – | 1.97e7 | 2.62e7 | inactive |
| kek3 | DRSC22830 | 2.74e7 | 4.70e7 | – | 1.50e7 | 2.13e7 | inactive |
| Aldh7A1 | DRSC11083 | 4.21e7 | 4.99e7 | – | 1.96e7 | 3.24e7 | inactive |
| CG33172 | DRSC21793 | 3.71e7 | 3.88e7 | – | 2.18e7 | 1.95e7 | inactive |
| BBS8 | DRSC00360 | 3.11e7 | 3.30e7 | – | 1.48e7 | 1.42e7 | inactive |
| RpLP1 | DRSC00783 | 1.97e7 | 2.64e7 | – | 1.16e7 | 1.24e7 | inactive |
| RpLP1 | DRSC22145 | 9.53e6 | 1.82e7 | – | 7.13e6 | 1.14e7 | inactive |
| mRpL37 | DRSC16062 | 4.30e7 | 3.54e7 | – | 1.84e7 | 1.72e7 | inactive |
| CG43689 | DRSC18046 | 2.63e7 | 3.52e7 | – | 1.32e7 | 1.47e7 | inactive |
| CG43689 | DRSC18383 | 2.12e7 | 2.98e7 | – | 1.18e7 | 1.49e7 | inactive |
| CG43689 | DRSC22467 | 2.99e7 | 4.86e7 | – | 1.68e7 | 2.29e7 | inactive |
| CG43689 | DRSC23070 | 4.92e7 | 3.19e7 | – | 2.39e7 | 1.41e7 | inactive |
| CG18266 | DRSC02659 | 4.48e7 | – | – | 2.10e7 | – | inactive |
| CG31495 | DRSC16762 | 3.80e7 | 5.17e7 | – | 1.80e7 | 7.96e7 | inactive |
| CG8441 | DRSC07180 | 3.58e7 | 3.34e7 | – | 1.64e7 | 1.61e7 | inactive |
| CNT2 | DRSC07073 | 4.72e7 | 4.23e7 | – | 2.00e7 | 1.90e7 | inactive |
| CG31524 | DRSC22014 | 2.09e7 | 3.09e7 | – | 1.10e7 | 1.51e7 | inactive |
| CG17944 | DRSC12572 | 3.90e7 | 2.79e7 | – | 1.80e7 | 1.36e7 | inactive |
| CG10126 | DRSC14191 | 3.53e7 | 4.78e7 | – | 1.57e7 | 2.10e7 | inactive |
| CG33096 | DRSC14440 | 4.84e7 | 4.09e7 | – | 2.22e7 | 1.72e7 | inactive |
| CG9582 | DRSC03267 | 3.36e7 | 4.66e7 | – | 1.57e7 | 2.00e7 | inactive |
| CG32106 | DRSC09219 | 4.15e7 | 4.76e7 | – | 1.92e7 | 2.20e7 | inactive |
| wuho | DRSC18101 | 2.62e7 | 3.80e7 | – | 1.38e7 | 1.59e7 | inactive |
| Ndfip | DRSC11201 | 4.52e7 | 4.67e7 | – | 1.96e7 | 3.24e7 | inactive |
| Amph | DRSC07578 | 3.86e7 | 4.06e7 | – | 1.70e7 | 2.03e7 | inactive |
| POSH | DRSC07499 | 4.66e7 | 5.63e7 | – | 2.16e7 | 2.55e7 | inactive |
| CG14811 | DRSC17962 | 3.63e7 | 5.36e7 | 2 | 1.81e7 | 2.21e7 | inactive |
| Fen1 | DRSC07415 | 3.47e7 | 3.18e7 | – | 1.50e7 | 1.54e7 | inactive |
| CG33003 | DRSC22419 | 4.42e7 | 3.33e7 | – | 2.07e7 | 1.37e7 | inactive |
| CG12729 | DRSC17884 | 3.40e7 | 3.64e7 | – | 1.65e7 | 1.75e7 | inactive |
| slp1 | DRSC00835 | 4.77e7 | – | – | 2.50e7 | – | inactive |

Limited to “resting calcium signal, replicate 1 (fluorescence units)”, for 4 of the entries above:
CG17944 [DRSC12572] = 1.80e7
CG10126 [DRSC14191] = 1.57e7
CG33096 [DRSC14440] = 2.22e7
CG9582 [DRSC03267] = 1.57e7
